This note sets out measurements from the supplement of paper PMC10849652.

Sequences of proteins named here, by UniProt entry; tags and fusion partners are left off. A change or cut given only in a name is not applied to a line headed by its entry.
UniProt Q8TD19: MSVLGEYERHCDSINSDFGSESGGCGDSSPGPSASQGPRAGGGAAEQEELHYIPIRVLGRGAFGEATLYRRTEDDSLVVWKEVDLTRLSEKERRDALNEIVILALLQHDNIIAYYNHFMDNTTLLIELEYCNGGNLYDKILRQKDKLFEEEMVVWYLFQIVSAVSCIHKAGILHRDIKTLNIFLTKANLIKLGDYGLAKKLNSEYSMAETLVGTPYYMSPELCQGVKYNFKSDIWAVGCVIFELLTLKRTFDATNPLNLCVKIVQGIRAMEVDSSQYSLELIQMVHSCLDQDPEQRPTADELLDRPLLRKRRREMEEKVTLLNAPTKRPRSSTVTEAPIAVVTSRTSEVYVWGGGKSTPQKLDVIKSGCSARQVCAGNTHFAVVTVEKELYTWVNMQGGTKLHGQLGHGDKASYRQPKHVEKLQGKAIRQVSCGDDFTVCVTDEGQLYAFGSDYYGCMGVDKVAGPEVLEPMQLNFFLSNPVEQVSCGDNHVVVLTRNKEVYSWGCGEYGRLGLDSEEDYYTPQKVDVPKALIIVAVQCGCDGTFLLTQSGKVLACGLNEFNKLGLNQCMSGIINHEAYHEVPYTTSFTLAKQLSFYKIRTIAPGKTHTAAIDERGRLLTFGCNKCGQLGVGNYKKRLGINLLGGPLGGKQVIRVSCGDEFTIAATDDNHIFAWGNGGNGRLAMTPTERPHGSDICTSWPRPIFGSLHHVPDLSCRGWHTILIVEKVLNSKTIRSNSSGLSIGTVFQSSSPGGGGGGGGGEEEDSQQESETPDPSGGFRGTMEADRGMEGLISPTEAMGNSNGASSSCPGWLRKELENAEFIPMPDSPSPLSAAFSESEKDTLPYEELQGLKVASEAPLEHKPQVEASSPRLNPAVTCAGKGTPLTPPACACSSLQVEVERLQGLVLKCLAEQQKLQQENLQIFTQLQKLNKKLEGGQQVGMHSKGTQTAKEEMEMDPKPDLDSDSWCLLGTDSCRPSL
UniProt Q9NX24: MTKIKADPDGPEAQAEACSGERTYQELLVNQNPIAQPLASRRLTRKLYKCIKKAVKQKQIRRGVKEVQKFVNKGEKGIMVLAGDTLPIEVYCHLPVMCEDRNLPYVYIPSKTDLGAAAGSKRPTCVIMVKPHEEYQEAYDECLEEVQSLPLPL
UniProt O95298, whole entry, looked up: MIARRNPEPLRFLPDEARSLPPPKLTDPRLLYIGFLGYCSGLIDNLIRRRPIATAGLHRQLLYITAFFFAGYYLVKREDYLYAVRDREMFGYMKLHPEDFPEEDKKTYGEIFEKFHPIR
UniProt O75489, whole entry, looked up: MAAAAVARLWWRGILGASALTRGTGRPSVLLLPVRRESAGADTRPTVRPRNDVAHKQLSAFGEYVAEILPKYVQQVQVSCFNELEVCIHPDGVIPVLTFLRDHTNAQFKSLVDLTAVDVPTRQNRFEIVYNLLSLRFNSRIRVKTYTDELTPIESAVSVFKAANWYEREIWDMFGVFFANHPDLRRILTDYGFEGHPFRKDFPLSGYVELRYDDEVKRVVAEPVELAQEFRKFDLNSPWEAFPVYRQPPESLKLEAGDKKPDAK
UniProt P51956: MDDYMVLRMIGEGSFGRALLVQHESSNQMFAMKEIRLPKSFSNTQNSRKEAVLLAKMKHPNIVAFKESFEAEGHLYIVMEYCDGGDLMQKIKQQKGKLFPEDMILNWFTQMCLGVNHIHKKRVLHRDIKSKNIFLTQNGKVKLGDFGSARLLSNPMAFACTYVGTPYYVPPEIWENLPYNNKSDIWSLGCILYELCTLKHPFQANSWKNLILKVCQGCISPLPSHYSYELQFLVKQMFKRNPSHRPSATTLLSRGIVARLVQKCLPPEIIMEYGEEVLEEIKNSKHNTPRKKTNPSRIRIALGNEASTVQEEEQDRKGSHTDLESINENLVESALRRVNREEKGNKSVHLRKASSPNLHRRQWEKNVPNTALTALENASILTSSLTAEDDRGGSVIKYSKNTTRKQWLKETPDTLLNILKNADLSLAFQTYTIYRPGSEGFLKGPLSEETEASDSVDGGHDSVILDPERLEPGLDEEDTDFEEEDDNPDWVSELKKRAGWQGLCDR
UniProt Q9NXR1: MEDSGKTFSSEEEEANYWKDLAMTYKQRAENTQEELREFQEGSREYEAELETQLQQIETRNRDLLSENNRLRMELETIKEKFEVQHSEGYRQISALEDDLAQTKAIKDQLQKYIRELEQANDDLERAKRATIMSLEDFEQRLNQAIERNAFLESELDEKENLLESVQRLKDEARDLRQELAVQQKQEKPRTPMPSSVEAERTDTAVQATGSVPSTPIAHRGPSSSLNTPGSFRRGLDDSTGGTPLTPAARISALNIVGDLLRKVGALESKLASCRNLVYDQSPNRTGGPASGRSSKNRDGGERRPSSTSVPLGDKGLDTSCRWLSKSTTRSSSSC
UniProt Q16795, whole entry, looked up: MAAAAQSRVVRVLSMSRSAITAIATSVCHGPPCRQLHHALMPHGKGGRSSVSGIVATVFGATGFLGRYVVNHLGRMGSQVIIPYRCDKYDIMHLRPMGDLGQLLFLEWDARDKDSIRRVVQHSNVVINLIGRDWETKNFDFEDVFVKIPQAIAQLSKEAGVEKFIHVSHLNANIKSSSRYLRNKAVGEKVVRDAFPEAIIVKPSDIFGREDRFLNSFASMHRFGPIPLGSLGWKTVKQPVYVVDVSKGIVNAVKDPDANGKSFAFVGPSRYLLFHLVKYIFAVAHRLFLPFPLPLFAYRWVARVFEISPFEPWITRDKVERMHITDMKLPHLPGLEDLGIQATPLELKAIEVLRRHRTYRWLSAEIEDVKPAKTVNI
UniProt P52848: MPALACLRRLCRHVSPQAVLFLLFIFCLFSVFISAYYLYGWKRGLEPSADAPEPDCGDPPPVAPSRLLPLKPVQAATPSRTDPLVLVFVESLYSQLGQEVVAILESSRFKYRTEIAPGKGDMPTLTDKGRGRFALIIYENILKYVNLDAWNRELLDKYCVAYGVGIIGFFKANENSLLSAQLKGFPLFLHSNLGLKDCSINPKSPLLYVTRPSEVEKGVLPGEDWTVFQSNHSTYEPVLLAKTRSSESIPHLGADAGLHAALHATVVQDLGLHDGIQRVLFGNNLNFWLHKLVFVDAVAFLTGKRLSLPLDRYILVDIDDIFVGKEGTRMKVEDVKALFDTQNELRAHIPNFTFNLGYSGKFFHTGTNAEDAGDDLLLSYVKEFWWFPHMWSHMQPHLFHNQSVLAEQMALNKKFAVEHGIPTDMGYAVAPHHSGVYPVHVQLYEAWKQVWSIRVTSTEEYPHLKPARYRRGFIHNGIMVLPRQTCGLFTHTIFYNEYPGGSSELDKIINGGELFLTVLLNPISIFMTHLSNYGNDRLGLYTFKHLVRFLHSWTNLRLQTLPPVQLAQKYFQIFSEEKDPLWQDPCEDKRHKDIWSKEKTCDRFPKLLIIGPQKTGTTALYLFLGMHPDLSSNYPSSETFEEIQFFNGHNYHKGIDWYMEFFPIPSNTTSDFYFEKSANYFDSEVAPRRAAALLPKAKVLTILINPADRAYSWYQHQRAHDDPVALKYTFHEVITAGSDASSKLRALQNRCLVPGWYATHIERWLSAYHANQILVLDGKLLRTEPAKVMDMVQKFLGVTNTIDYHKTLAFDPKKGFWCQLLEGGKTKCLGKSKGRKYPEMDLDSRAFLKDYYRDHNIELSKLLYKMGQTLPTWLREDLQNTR
UniProt Q9BT67: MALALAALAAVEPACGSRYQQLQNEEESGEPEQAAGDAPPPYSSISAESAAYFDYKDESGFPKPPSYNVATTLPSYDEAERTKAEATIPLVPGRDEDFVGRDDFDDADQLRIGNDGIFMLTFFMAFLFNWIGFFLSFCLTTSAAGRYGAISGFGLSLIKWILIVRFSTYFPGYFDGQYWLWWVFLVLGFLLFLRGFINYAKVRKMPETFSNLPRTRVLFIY
UniProt Q8WX92, whole entry, looked up: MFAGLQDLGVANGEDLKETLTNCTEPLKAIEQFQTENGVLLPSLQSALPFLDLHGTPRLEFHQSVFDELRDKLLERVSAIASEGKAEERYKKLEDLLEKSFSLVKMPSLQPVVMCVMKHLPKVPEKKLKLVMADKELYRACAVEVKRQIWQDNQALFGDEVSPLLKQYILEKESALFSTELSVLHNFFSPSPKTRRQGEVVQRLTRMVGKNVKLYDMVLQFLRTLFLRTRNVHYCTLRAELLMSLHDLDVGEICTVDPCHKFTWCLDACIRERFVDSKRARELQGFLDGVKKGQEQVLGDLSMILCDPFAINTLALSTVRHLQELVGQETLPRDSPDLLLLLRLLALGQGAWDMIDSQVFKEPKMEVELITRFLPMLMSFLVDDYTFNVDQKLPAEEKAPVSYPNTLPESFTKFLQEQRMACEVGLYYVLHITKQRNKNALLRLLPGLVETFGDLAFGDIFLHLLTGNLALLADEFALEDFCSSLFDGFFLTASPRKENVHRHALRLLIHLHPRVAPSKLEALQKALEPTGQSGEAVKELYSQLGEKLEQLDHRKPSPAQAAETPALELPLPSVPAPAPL
UniProt Q9BU61: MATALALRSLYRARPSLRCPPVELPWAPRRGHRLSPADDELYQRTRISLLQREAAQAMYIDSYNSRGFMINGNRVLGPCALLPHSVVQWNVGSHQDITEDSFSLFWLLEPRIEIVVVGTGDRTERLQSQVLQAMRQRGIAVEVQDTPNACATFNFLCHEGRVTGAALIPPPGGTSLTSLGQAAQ
UniProt Q12968: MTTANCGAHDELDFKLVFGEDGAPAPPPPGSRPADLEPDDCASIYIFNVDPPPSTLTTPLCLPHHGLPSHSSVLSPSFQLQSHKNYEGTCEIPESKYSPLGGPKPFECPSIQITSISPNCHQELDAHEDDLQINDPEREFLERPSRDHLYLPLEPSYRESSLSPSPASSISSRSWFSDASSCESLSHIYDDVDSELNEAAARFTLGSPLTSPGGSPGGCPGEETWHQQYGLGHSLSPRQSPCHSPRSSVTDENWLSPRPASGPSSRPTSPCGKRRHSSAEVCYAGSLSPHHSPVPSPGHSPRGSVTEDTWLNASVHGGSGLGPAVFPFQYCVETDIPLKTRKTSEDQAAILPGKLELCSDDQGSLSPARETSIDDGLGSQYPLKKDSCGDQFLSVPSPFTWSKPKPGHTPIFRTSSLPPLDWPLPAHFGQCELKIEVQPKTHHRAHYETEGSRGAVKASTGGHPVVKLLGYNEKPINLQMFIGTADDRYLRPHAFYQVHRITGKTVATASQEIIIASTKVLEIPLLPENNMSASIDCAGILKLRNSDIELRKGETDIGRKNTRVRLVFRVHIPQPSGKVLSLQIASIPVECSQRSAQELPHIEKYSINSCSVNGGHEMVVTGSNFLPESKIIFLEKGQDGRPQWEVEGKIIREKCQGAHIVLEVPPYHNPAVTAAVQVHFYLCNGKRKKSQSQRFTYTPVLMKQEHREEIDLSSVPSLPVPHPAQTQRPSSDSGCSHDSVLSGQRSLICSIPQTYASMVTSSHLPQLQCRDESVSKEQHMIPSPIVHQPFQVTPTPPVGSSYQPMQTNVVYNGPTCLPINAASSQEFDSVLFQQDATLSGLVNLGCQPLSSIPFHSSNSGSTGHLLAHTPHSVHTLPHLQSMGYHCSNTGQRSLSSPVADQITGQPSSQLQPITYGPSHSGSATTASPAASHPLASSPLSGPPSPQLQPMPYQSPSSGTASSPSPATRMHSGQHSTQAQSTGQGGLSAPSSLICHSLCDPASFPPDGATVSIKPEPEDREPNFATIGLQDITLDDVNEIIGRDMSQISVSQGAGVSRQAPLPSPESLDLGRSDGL
UniProt Q6ZNB6: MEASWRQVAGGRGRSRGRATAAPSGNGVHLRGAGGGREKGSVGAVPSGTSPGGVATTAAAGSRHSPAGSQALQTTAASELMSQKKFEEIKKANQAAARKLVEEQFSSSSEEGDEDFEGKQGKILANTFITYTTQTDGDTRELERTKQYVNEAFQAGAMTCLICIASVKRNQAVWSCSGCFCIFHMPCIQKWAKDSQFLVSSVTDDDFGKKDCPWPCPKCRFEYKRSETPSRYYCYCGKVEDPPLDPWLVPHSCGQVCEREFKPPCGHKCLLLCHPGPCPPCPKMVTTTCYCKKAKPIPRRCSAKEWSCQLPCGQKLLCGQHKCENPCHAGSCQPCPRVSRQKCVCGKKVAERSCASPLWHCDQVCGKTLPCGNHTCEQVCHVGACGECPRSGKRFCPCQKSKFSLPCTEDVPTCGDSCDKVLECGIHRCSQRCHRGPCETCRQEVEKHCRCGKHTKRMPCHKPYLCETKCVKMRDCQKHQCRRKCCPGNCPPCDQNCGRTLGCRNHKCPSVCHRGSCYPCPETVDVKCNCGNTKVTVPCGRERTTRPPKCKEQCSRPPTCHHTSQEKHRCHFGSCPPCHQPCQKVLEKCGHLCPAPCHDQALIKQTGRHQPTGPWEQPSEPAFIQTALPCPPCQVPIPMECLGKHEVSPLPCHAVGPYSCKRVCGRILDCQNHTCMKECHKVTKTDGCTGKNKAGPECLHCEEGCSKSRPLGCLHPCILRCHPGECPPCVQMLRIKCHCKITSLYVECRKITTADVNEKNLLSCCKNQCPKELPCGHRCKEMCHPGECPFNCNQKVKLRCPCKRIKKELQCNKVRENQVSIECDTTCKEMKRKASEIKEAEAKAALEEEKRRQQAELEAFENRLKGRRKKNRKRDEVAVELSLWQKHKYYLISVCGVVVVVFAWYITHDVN

Experiment in all cases: log2 fold change, soluble protein after heating vs DMSO (PISA); higher = thermal stabilisation; K562 lysate, 10 uM; active = over 0.2 and 3.5 SD of the protein, either way, in both replicates (recomputed)
Compound in test [1]: C1=CC=C(C=C1)[C@H](COC2=CC3=C(C=C2)NC(=O)N3)NC(=O)C4=CC=CN(C4=O)CC5=CC(=C(C=C5)F)F
In outline: (§1)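 To prepare the extract, K562 pellets were dounce-homogenised in PBS pH 7.4 with 1 mM MgCl2, giving crude material at 1 mg/mL protein. This was treated with 10 μM compound for 30 min, then heated in aliquots for 3 min over 48°C-58°C before pooling and addition of NP-40 to 0.5% at 4°C. Centrifugation at 21,000xg for 90 min left soluble protein in the supernatant, which TMTpro 16plex LC-MS/MS quantified with equalised channel sums. Results are log-two fold changes in thermal stability compared with solvent controls, from duplicates.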

Compound in test [2]: CC1=C(SC2=C1C(=N[C@H](C3=NN=C(N32)C)CC(=O)N)C4=CC=C(C=C4)Cl)C
In outline:
as §1

Compound in test [3]: CC1=C2C(=CC=C1)N=C(N(C2=O)C3=CC=CC=C3C)CN4C=NC5=C(N=CN=C54)N
The method, boiled down:
as §1

Compound in test [4]: Cc1sc2c(c1C)C(c1ccc(Cl)cc1)=N[C@@H](CC(=O)OC(C)(C)C)c1nnc(C)n1-2
In outline:
as §1

Compound in test [5]: c1ccc([C@@H]2C[C@H]2NC2CCNCC2)cc1
In outline:
as §1

The other results are listed elsewhere or left out.

Regarding NDRG1 (UniProt Q92597), the log2 fold change is inactive: -0.083 in test [1]; inactive: -0.19 in test [2]; inactive: -0.104 in test [3]; inactive: -0.069 in test [4]; inactive: -0.024 in test [5].
NFE2 (UniProt Q16621): the log2 fold change was inactive: -0.042 in test [1]; inactive: 0.021 in test [2]; inactive: 0.004 in test [3]; inactive: -0.028 in test [4]; inactive: -0.011 in test [5].
The corresponding values for NDUFS7 (UniProt O75251) are inactive: -0.045, inactive: 0.067, inactive: -0.017, inactive: 0.033 and inactive: 0.082.
The like results for NDUFV3 (UniProt P56181) were, in that order, inactive: 0.043, inactive: -0.023, inactive: -0.064, inactive: -0.108 and inactive: -0.019.
The like results for NEK9 (UniProt Q8TD19) were, in that order, inactive: -0.002, inactive: 0.002, inactive: -0.033, inactive: 0.017 and inactive: -0.032.
Turning to NHP2 (UniProt Q9NX24), the log2 fold change is inactive: 0.084 in test [1]; inactive: -0.025 in test [2]; inactive: 0.047 in test [3]; inactive: -0.014 in test [4]; inactive: -0.167 in test [5].
The like results for NFAT5 isoform 5 (UniProt O94916) were, in that order, inactive: 0.12, inactive: -0.028, inactive: 0.009, inactive: -0.02 and inactive: -0.007.
Take NDUFC2 (UniProt O95298): the log2 fold change in test [1] is inactive: 0.04; in test [2], inactive: -0.078; in test [3], inactive: 0.014; in test [4], inactive: 0.008; in test [5], inactive: -0.029.
The corresponding values for NIPSNAP3A (UniProt Q9UFN0) are inactive: 0.083, inactive: -0.037, inactive: -0.013, inactive: -0.036 and active: 0.322.
The like results for NDUFS3 (UniProt O75489) were, in that order, inactive: 0.015, inactive: 0.048, inactive: 0.006, inactive: 0.04 and inactive: -0.001.
The like results for NEK3 (UniProt P51956) were, in that order, inactive: -0.015, inactive: -0.053, inactive: -0.247, inactive: 0.066 and inactive: -0.097.
As for NF1 (UniProt P21359), the log2 fold change in test [1] was inactive: -0.03; in test [2], inactive: -0.01; in test [3] it was inactive: 0.03; in test [4], inactive: -0.009; in test [5], inactive: 0.016.
The corresponding values for NDUFS6 (UniProt O75380) are inactive: 0.044, inactive: -0.049, inactive: -0.017, inactive: 0.004 and inactive: -0.005.
The corresponding values for NDE1 isoform 1 (UniProt Q9NXR1) are inactive: -0.022, inactive: 0.031, inactive: 0.035, inactive: -0.021 and inactive: -0.023.
The corresponding values for NDUFA9 (UniProt Q16795) are inactive: -0.033, inactive: -0.037, inactive: 0.071, inactive: -0.007 and inactive: 0.085.
For NDST1 (UniProt P52848), the log2 fold change in test [1] is inactive: 0.077; in test [2], inactive: 0.111; in test [3] it was inactive: -0.072; in test [4], inactive: 0.109.
For NFKB2 (UniProt Q00653), the log2 fold change in test [1] was inactive: -0.001; in test [2], inactive: 0.009; in test [3] it was inactive: 0.016; in test [4], inactive: -0.021; in test [5], inactive: 0.002.
The corresponding values for NDUFS2 (UniProt O75306) are inactive: 0, inactive: 0.025, inactive: -0.012, inactive: 0.017 and inactive: 0.012.
On to NDFIP1 (UniProt Q9BT67), for which the log2 fold change in test [1] is inactive: -0.049; in test [2], inactive: 0; in test [3], inactive: 0.108; in test [4], inactive: -0.332; in test [5], inactive: -0.022.
As to NDUFS5 (UniProt O43920), the log2 fold change in test [1] was inactive: -0.04; in test [2], inactive: 0.045; in test [3], inactive: 0.017; in test [4], inactive: -0.007; in test [5] it was inactive: -0.004.
As to NELFB isoform 2 (UniProt Q8WX92), the log2 fold change in test [1] is inactive: -0.022; in test [2], inactive: -0.018; in test [3], inactive: 0.022; in test [4] it was inactive: 0.014; in test [5], inactive: 0.018.
The like results for NDUFAF3 (UniProt Q9BU61) were, in that order, inactive: -0.08, inactive: 0.058, inactive: 0.108, inactive: -0.023 and inactive: 0.006.
On to NFATC3 (UniProt Q12968), for which the log2 fold change in test [1] was inactive: 0.026; in test [2], inactive: 0.004; in test [3], inactive: 0.005; in test [4], inactive: -0.003; in test [5], inactive: 0.016.
The like results for NDC80 (UniProt O14777) were, in that order, inactive: -0.042, inactive: -0.027, inactive: -0.004, inactive: -0.007 and inactive: 0.015.
The corresponding values for NKTR (UniProt P30414) are inactive: 0.06, inactive: -0.022, inactive: 0.103, inactive: -0.38 and inactive: -0.218.
Consider NFXL1 (UniProt Q6ZNB6), for which the log2 fold change in test [1] was inactive: 0.043; in test [2], inactive: 0.095; in test [3] it was inactive: -0.021; in test [4], inactive: -0.022; in test [5] it was inactive: -0.059.
Turning to NFYB (UniProt P25208), the log2 fold change in test [1] was inactive: 0.062; in test [2] it was inactive: -0.053; in test [3] it was inactive: 0.067; in test [4], inactive: -0.073; in test [5], inactive: -0.037.
